Assay in all cases: affinity purification with mass spectrometry; split-tag tandem affinity purification from S. cerevisiae lysate: first Slx9 on IgG Sepharose with TEV cleavage, then Dim1 on Flag-agarose; 50 mM Tris-HCl pH 7.5, 150 mM NaCl, 2 mM MgCl2; Coomassie bands identified by MALDI-TOF
Assay [1] concerns the target T1, Slx9 (S. cerevisiae), first bait of the split-tag purification (S. cerevisiae) (UniProt P53251).
T1 sequence: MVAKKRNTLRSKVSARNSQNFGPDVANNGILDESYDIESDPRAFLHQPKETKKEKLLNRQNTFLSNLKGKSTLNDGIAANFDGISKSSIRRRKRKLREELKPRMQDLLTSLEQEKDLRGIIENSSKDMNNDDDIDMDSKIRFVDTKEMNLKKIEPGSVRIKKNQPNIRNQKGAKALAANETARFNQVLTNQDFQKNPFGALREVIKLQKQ

Amino acid sequences for entries named in this document (tags omitted).
UniProt P41819: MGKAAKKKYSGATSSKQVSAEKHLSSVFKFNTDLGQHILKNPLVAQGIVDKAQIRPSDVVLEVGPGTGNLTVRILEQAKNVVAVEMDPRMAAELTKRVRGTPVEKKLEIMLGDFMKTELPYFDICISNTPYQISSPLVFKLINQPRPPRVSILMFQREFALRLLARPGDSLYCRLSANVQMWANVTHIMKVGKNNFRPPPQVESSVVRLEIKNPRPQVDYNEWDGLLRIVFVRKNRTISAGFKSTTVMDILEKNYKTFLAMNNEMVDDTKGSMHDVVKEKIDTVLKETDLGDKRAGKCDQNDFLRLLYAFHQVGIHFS
UniProt P40160: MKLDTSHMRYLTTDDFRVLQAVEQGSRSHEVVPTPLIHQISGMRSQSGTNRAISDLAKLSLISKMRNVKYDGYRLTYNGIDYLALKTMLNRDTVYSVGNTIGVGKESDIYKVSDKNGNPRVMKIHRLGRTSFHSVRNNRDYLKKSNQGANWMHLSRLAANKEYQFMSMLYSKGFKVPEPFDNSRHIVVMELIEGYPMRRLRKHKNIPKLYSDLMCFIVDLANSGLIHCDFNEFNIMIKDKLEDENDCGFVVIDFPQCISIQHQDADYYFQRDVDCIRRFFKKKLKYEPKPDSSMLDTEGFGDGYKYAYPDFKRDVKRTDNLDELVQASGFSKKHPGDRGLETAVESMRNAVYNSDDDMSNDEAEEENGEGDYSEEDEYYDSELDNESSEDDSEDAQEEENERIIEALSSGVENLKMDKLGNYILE

For assay [2], the target named is Dim1 (S. cerevisiae), second bait of the split-tag purification (S. cerevisiae) (UniProt P41819).
The target in assay [3] is T1, Slx9 (S. cerevisiae), first bait of the split-tag purification (S. cerevisiae). The source holds these as a separate data set.
Assay [4] deals with Dim1 (S. cerevisiae), second bait of the split-tag purification (S. cerevisiae) (UniProt P41819). This is another data set of the same source.
Assay [5] has as its target T2, Slx9 (S. cerevisiae), first bait of the split-tag purification (S. cerevisiae), P53251.
T2 chain: T1 sequence
The note with it: remark: other sources report otherwise.

Read-outs that look alike come from different tables or passages of the source. These are yes or no findings as the source states them, for the method shown. Binding seen in cells or lysates may run through a third protein. These calls come from enrichment with a bait or labelling near it, and not all partners need be listed. For some of these results: Sequences can lack the tags named with a protein.

For the molecule “Dim1 (S. cerevisiae), second bait of the split-tag purification (from UniProt P41819 1-318) (enzyme)”, in assay [1], the binding result is listed as “binds”.

In the case of “Rio2 (S. cerevisiae) (from UniProt P40160 1-425) (enzyme)”, the binding result in assay [1] and in assay [2] was “binds” in each case.

B1: Nob1 (S. cerevisiae) (enzyme, UniProt Q08444 1-459)
chain: MTENQTAHVRALILDATPLITQSYTHYQNYAQSFYTTPTVFQEIKDAQARKNLEIWQSLGTLKLVHPSENSIAKVSTFAKLTGDYSVLSANDLHILALTYELEIKLNNGDWRLRKKPGDALDASKADVGTDGKQKLTEDNKKEEDSESVPKKKNKRRGGKKQKAKREAREAREAENANLELESKAEEHVEEAGSKEQICNDENIKESSDLNEVFEDADDDGDWITPENLTEAIIKDSGEDTTGSLGVEASEEDRHVALNRPENQVALATGDFAVQNVALQMNLNLMNFMSGLKIKRIRNYMLRCHACFKIFPLPKDGKPKHFCASCGGQGTLLRCAVSVDSRTGNVTPHLKSNFQWNNRGNRYSVASPLSKNSQKRYGKKGHVHSKPQENVILREDQKEYEKVIKQEEWTRRHNEKILNNWIGGGSADNYISPFAITGLKQHNVRIGKGRYVNSSKRRS
B1: the binding result in assay [3] and in assay [4] was “binds” each time.

B2: Ltv1 (S. cerevisiae), P34078 1-463 (protein)
chain: MSKKFSSKNSQRYVVVHRPHDDPSFYDTDASAHVLVPVSNPNKTSPEADLRKKDVSSTKPKGRRAHVGEAALYGINFDDSEYDYTQHLKPIGLDPENSIFIASKGNEQKVEKKNIEDLFIEPKYRRDEIEKDDALPVFQRGMAKPEYLLHQQDTTDEIRGFKPDMNPALREVLEALEDEAYVVNDDVVVEDISKKTQLQGDNYGEEEKEDDIFAQLLGSGEAKDEDEFEDEFDEWDIDNVENFEDENYVKEMAQFDNIENLEDLENIDYQADVRRFQKDNSILEKHNSDDEFSNAGLDSVNPSEEEDVLGELPSIQDKSKTGKKKRKSRQKKGAMSDVSGFSMSSSAIARTETMTVLDDQYDQIINGYENYEEELEEDEEQNYQPFDMSAERSDFESMLDDFLDNYELESGGRKLAKKDKEIERLKEAADEVSKGKLSQRRNRERQEKKKLEKVTNTLSSLKF
As to B2, in assay [5], the binding result is “binds”.

B3: Ltv1 (S. cerevisiae) (protein, UniProt P34078 1-463)
chain: B2 chain
B3: the binding entry in assay [4] was “binds”.

Source of the values: publication PMC9723619.
